# Results of single-concentration screens

Sequences of proteins named here, by UniProt entry; tags and fusion partners are left off. Residues count along the entry.
UniProt A4I591, 1-473: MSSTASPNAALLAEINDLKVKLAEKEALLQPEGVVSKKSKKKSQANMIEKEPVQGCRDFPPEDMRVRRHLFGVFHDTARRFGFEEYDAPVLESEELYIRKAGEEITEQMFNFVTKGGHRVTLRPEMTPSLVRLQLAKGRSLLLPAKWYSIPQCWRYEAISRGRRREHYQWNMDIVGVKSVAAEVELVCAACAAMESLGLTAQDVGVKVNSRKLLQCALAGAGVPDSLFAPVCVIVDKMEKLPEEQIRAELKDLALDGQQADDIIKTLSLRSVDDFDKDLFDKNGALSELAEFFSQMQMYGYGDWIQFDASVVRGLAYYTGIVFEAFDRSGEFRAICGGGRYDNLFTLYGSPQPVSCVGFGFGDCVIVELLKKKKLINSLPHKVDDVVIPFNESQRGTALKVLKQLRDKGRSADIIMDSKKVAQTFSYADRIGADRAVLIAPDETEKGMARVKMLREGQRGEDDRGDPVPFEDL
UniProt P9WNZ1, whole entry: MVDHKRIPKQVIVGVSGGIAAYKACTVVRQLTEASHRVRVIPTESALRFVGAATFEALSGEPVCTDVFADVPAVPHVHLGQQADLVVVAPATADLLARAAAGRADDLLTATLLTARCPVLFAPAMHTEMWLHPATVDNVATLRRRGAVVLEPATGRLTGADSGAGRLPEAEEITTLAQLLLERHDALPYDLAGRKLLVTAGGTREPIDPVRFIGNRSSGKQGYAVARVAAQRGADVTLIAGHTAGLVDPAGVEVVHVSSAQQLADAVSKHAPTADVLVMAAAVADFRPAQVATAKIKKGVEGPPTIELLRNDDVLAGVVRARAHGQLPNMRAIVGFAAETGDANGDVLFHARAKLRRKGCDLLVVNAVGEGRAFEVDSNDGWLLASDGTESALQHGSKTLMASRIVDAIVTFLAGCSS

Data taken from ChEMBL document CHEMBL3988442, “University of Dundee, Small-Polar-MMV Screening Library” (2021).

Values are the deposited “Percent Effect”, in %. The record does not define 0% and 100%; most values in the screen are far below 50% and negative numbers occur (in some assays of this library far below -100). This is an unselected part of the compounds tested.

LiHisRS: 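Histidine-tRNA ligase, Leishmania infantum (UniProt A4I591). Enzyme assay of histidyl-tRNA synthetase; the read-out is not stated. Compounds at 30 µM. The record gives no direction; compounds that gave an IC50 in retests scored well above the rest, so higher reads as stronger inhibition. The assay is labelled LdHisRS but filed under L. infantum. Of about 69,000 compounds tested this way, about 410 (0.6%) reached 50% or more in at least one test.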
Leishmania in macrophages: 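Cell assay of Leishmania donovani living inside macrophages; the read-out is not stated. Compounds at 30 µM. Higher reads as stronger inhibition (inferred: compounds with an IC50 in retests scored well above the rest). About 69,000 compounds were tested under these conditions; 1.5% (about 1,000) showed 50% or more at least once.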
CoaBC: 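Enzyme assay of CoaBC with a phosphate dye (Biomol Green) read at 650 nm. Target: Coenzyme A biosynthesis protein CoaBC, Mycobacterium tuberculosis (UniProt P9WNZ1). Tested at 30 µM. Direction is inferred from only a few compounds that gave an IC50; most scored high, so higher reads as stronger inhibition. Most strong results did not repeat in a second test. About 67,000 compounds were tested under these conditions; 0.06% (about 40) showed 50% or more at least once.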

CS(=O)(=O)N1C[C@@H]2CC[C@H](C1)N(C/C=C/c1ccc(F)cc1)C2 read LiHisRS: 20.59%; CoaBC: 6.11%.
Cc1ccccc1CC(C)NCc1c(C)nn(C)c1N1CCOCC1.Cl (configuration not stated) read Leishmania in macrophages: 23.43%.
O=C(O)C(F)(F)F.[H][C@@]12CCCO[C@]1([H])[C@H](NC(=O)CC1CC1)CN(Cc1cnn(C)c1)C2 read Leishmania in macrophages: -11.98%.
COCC(=O)N1CCCCC1c1nc(CN(C)C(C)=O)cc(N(C)C)n1 (configuration not stated) read LiHisRS: 10.74%; Leishmania in macrophages: -2.528%; CoaBC: 2.055%.
O=C(O)C(F)(F)F.O=C(O)C(F)(F)F.O=C(c1n[nH]c2c1CN(C1CCOC1)CC2)N1CCOCC1 (configuration not stated) read Leishmania in macrophages: 5.629%.
Cc1nc(COc2ccc(OCC(N)=O)cc2)oc1C read LiHisRS: 9.677%; Leishmania in macrophages: 12.18%; CoaBC: -0.7335%.
[H][C@@]12CNC[C@]1([H])CN(c1nc(C)nc3ccsc13)C2 read Leishmania in macrophages: 34.52%.
CN1CCC2(CCCN(c3nccc(C(F)(F)F)n3)C2)CC1.O=C(O)C(F)(F)F read Leishmania in macrophages: 21.14%.
c1cc(NC2CC3(CCN(Cc4cscn4)C3)C2)ncn1 (configuration not stated) read LiHisRS: 13.42%; Leishmania in macrophages: 6.423%; CoaBC: 14.16%.
CC(C)NC(=O)Cn1cc(-c2ccccc2)ncc1=O read LiHisRS: 15.58%; Leishmania in macrophages: 32.54%; CoaBC: 1.022%.
O=C(O)C(F)(F)F.[H][C@@]12COC[C@@H](C(=O)N3CCCC3)[C@]1([H])CN(c1ccncn1)C2 read Leishmania in macrophages: -6.13%.
O=S(=O)(Nc1cnc(N2CCCC2)nc1)c1ccc(C(F)(F)F)cc1 read LiHisRS: 0%; Leishmania in macrophages: -17.28%; CoaBC: 1.129%.
Cc1cccc(CN2Cc3nccn3CC(CN3CCOCC3)C2)c1.O=C(O)C(F)(F)F.O=C(O)C(F)(F)F (configuration not stated) read Leishmania in macrophages: 14.01%.
CN(C)c1ccc(C(=O)NCCCNc2ccc(C(F)(F)F)cn2)cc1 read LiHisRS: 14.68%; Leishmania in macrophages: 24.92%; CoaBC: 6.394%.
COc1ccc(-n2cnnc2SCC(C)(C)O)cn1 read LiHisRS: 10.68%; Leishmania in macrophages: 19.87%; CoaBC: 5.357%.
CCc1nc(C2CCCN2Cc2nc3ccccc3o2)no1 (configuration not stated) read LiHisRS: 2.667%; Leishmania in macrophages: 0.8853%; CoaBC: 7.949%.
CS(=O)(=O)Cc1cccc(C(=O)N2CCCC(n3cccn3)C2)c1 (configuration not stated) read LiHisRS: -8.511%; Leishmania in macrophages: -5.751%; CoaBC: -1.036%.
COc1ccccc1NC(=O)c1[nH]nc(C(C)C)c1Br read LiHisRS: -4.225%; Leishmania in macrophages: 20.52%.
O=C1N(Cc2cccnc2)CCC12CCCNC2 (configuration not stated) read LiHisRS: 12.2%; Leishmania in macrophages: -3.404%; CoaBC: -1.209%.
[H][C@]12CCC(=O)N(C)[C@@]1(C)CCCCN2C(=O)CCn1nccc1C read Leishmania in macrophages: 31%.
O=C(O)C(F)(F)F.O=C(O)C(F)(F)F.O=C(O)C(F)(F)F.c1c[nH]c(CN2CCC3(CC2)COCCN(CCN2CCCC2)C3)c1 read Leishmania in macrophages: 15.39%.
CNC(=O)NC(=O)CCN1CCN(c2ccc(C(=O)OC)cc2)CC1C (configuration not stated) read LiHisRS: 11.61%; Leishmania in macrophages: 15.95%; CoaBC: 0.894%.
c1ccc2nc(NCC3(N4CCOCC4)CCSC3)cnc2c1 (configuration not stated) read LiHisRS: 22.08%; Leishmania in macrophages: -13.31%; CoaBC: 2.532%.
COc1ccc(CC2(C(=O)O)CCN(c3nc(C)ncc3C)CC2)cc1 read LiHisRS: 12.9%; Leishmania in macrophages: 18.97%; CoaBC: 2.829%.
CCc1nc(CN(C(C)=O)C2CCN(CCc3ccccc3)C2)no1 (configuration not stated) read LiHisRS: 11.86%; Leishmania in macrophages: 1.585%; CoaBC: 0.5249%.
CC(C)N(C)Cc1cncc2c1CCN(CC1CC1)C2.Cl.Cl.Cl read Leishmania in macrophages: 34.78%.
CCc1c(C(=O)N2C[C@H]3CC[C@@H]2CN(c2cnccn2)C3)csc1C read LiHisRS: 15.71%; CoaBC: 2.664%.
Nc1cc(-c2cc[nH]n2)nc(N2CCCC2)n1 read LiHisRS: 3.279%; Leishmania in macrophages: 9.34%; CoaBC: 2.751%.

The last 2 entries again:

{"compound": "CCc1c(C(=O)N2C[C@H]3CC[C@@H]2CN(c2cnccn2)C3)csc1C", "LiHisRS": 15.71, "CoaBC": 2.664}
{"compound": "Nc1cc(-c2cc[nH]n2)nc(N2CCCC2)n1", "LiHisRS": 3.279, "Leishmania in macrophages": 9.34, "CoaBC": 2.751}